Source: publication PMC10163288
The other results are listed elsewhere or left out.

B1: il2ra_site1_3nfp_sap_13_mot_2bd1b0f3045d084678c76d87b19d0498_0001_af2_000000155_0001_34_49_H_._HHH_b2_06826_af2_0001_0000200007_0000001_0_0001 (protein)
chain: SSSSDEMERLFRLAHEATRLLRNGDPEEAARVLEEALEIAKEVDPMAERLIEWLLRDLERSSSSS
B2: il2ra_site1_3nfp_sap_8_mot_119b7766384adbe86006a62bce89dba1_0001_af2_000000092_0001_18_32_H_._71ef7cdb5dcc7a70b233eb8b1f999326_0001_0001_0000300009_0000001_0_00 … (protein)
chain: SSSSSSEEEVEELLRQAKEAFEKGDLKLAFELIEEALRIAKEAGDEELLRAIERVMRELASSSSS
B3: il2ra_site2_2erj_sap_20_mot_HHH_b1_04360_af2_000000220_0001_40_57_H_._HHH_b1_02776_0001_0000200003_0000001_0_0001 (protein)
chain: SSSSSSSLLEEAQEEIERLLKEGNSEEALRFAYEVAVELLRKDLREAHEFLEEAQKLFSSSSSSS
B4: il2ra_site1_2b5i_sap_8_mot_HHH_b1_08243_000000135_0001_1_19_H_._HHH_b1_06407_0001_0000700034_0000001_0_0001_af2pred_dldesign_0_af2pred (protein)
chain: SSSSDPKAEVERLLEEARRLYEAGRRREAFELLEEAYKLASEANDDELEDKVYAFARELASSSSS
B5: il2ra_site2_3nfp_sap_14_mot_HHH_b2_05823_000000037_0001_43_56_H_._HHH_b2_05358_0001_0000200012_0000001_0_0001 (protein)
chain: SSSSDDRLELTIESAKLLAEELNDDEALERIEQLEEEIEREGDPRLRLELYELALELYERGSSSS
B6: il2ra_site1_2b5i_normal_mot_HHH_b2_04910_000000118_0001_1_19_H_._HHH_b1_05441_0001_0000100005_0000001_0_af2pred_dldesign_0_af2pred (protein)
chain: SSSSDVKKARELFLEANRLRQAGDYAGAEALLEKAKELAEAAKANLLVKIIENALADLRALSSSS
B7: il2ra_site1_1z92_normal_mot_b1fbee8209167eaadba3689d49187f1a_0001_1_af2_000000019_0001_16_31_H_._2432f4ad5732428c6a29b72b57de0898_0001_1_0001_0000100003_0000001 … (protein)
chain: TEMAELLAKILLDPRRREELLEELLEEAKKEGDLEAIRRDLEFAARFFGDPEIEEVVRELYEELK
B8: il2ra_site2_2erj_normal_mot_HHH_b2_05264_af2_000000057_0001_44_57_H_._HHH_b2_07172_0001_0000200008_0000001_0 (protein)
chain: SSSSSDEREVWERVAELLSRAAHVEDEEEAERLLREARELAEELGSPFLERYVEYARRAHSSSSS
B9: il2ra_site1_3nfp_sap_12_mot_HHH_b1_07770_af2_000000151_0001_1_16_H_._HHH_b1_05931_0001_0000200005_0000001_0_0001_af2pred_0001_af2pred_1_swapped (protein)
chain: SSSSSELEEIIREAEELAKEAGSKVAERLIRLLAERFEKTGDPRAVELIEEAAEALKRFLKSSSS
B10: il2ra_site2_2erj_sap_19_mot_HHH_b1_00821_000000158_0001_1_20_H_._HHH_b1_01338_0001_0000700017_0000001_0_0001 (protein)
chain: SSSSSELEERIRELLEELEEVVKEGDFARAYELALEIYHLIAKLGDEELARELSELIKRMQSSSS
B11: il2ra_site2_2erj_normal_mot_HHH_b1_04373_af2_000000118_0001_18_33_H_._HHH_b2_05199_0001_0000200024_0000001_0 (protein)
chain: SSSSSEELRRLYELAVILLRLVEEGDEEEFERVLEEAQKIAEERQSDSAEEFLEILEKLLSSSSS
B12: il2ra_site1_3nfp_sap_18_mot_HHH_b1_01335_af2_000000105_0001_39_53_H_._966a9f62293634969225d85b517b1661_0001_1_0001_0001000027_0000001_0_0001 (protein)
chain: SSSSDVFKRAQRLSREILRLHHEGDREEARRLLEELQEYAEEEGDPVLEYFVEKLEEHIDSSSSS
B13: il2ra_site2_3nfp_sap_22_mot_HHH_b1_01480_000000265_0001_40_57_H_._HHH_b1_04954_0001_0000100002_0000001_0_0001 (protein)
chain: SSSSDVEEQVEELLEEFRKALEEGDEDLLRVLFVRIMRLAMRTNDPKISEISHEVFQLLESSSSS
B14: il2ra_site1_2b5i_sap_16_mot_HHH_b1_01419_af2_000000080_0001_42_53_H_._HHH_b1_05266_af2_0001_0000100001_0000001_1_0001_af2pred_dldesign_0_af2pred (protein)
chain: SSSSSNQDEVYRLYKEALRLYKEGKREEAKKVLEEALKLAEKNKDEVAVKELKELLKRLESSSSS
B15: il2ra_site1_3nfp_sap_15_mot_HHH_b1_06663_af2_000000256_0001_40_55_H_._HHH_b2_00970_af2_0001_0000100005_0000001_0_0001_af2pred_0001_af2pred_1_swapped (protein)
chain: SSSSSEEAKEFDRLLREASKALEEGDEELVKELLKELEEIAEKRNSPIAKRLVKLLKEQLSSSSS
B16: il2ra_site1_1z92_normal_mot_HHH_b1_08467_af2_000000139_0001_42_58_H_._HHH_b2_05518_af2_0001_0000200008_0000001_0 (protein)
chain: SSSSDEEEEELDELAQELLELMKEGDKEEAERLARELLKLAKELNDENLFREVERTLKFLSSSSS
B17: il2ra_site1_2b5i_normal_mot_0e5a94e4a5addaac739760efb25f0f5d_0001_000000246_0001_18_32_H_._HHH_b2_07956_af2_0001_0000100002_0000001_1_af2pred_0001_af2pred (protein)
chain: SSSSSDEERELLRAIIRAIWILLARGDEELVQRLEELARRAHQENDPELLREAVEIAEEVRSSSS
B18: il2ra_site1_1z92_sap_9_mot_96901828190b971c916e7b6b8058f7b9_0001_af2_000000268_0001_39_52_H_._2db9124b7b6a1130000dd07f88946ede_0001_1_af2_0001_0000100004_000000 … (protein)
chain: SLEEQAELLLEIAPNPRALRRFLEVVLKTSGDPEDAEKFIEIVRKIARELGNEKLEEAAEEALRK
B19: il2ra_site1_2b5i_normal_mot_HHH_b2_08221_000000034_0001_1_18_H_._HHH_b1_05710_0001_0000200013_0000001_0_af2pred_dldesign_0_af2pred (protein)
chain: SSSSSPLLELLKEIEKKLKELEAKHEEEVLDPIEDAIRAALKSKDLAALEAILKELEALLKSSSS
B20: il2ra_site2_3nfp_sap_19_mot_HHH_b1_00660_af2_000000090_0001_40_57_H_._05aa7e744345dd736dff7248ed86ef87_0001_1_af2_0001_0000400012_0000001_1_0001 (protein)
chain: SSSSDKAEEYLRIALEILERAREDNDEESARSIAEVLLAAAESNRDEEVFERAEEILEELSSSSS
B21: il2ra_site2_3nfp_sap_24_mot_HHH_b2_00895_af2_000000106_0001_38_52_H_._HHH_b1_08075_0001_0000300013_0000001_0_0001 (protein)
chain: SSSDREEEIERLFEEVEELLKRGDPAEATQLLMEMAELANRLNDPELARLVLELYKLARELYSSS
B22: il2ra_site1_3nfp_normal_mot_HHH_b2_03135_af2_000000097_0001_42_55_H_._8ec5799815994991cb8689a80b606799_0001_0001_0000800052_0000001_0_af2pred_0001_af2pred (protein)
chain: SLEEILEELKEEYKDDPDIKILLELLERLARIKGDPKEAAEYLLKIAEKAGDEKAQEVLKSVLET
B23: il2ra_site2_2erj_normal_mot_HHH_b2_00789_000000198_0001_40_54_H_._HHH_b2_00575_0001_0000600037_0000001_1 (protein)
chain: SSSSSDTEEEVLELIAEAAHIQDREEVRRLLEEAEEIAERSNNELLLRYLELSLELEEKGSSSSS
B24: il2ra_site1_3nfp_normal_mot_HHH_b1_06826_000000053_0001_1_20_H_._HHH_b2_07961_0001_0000900039_0000001_0_af2pred_0001_af2pred_swapped (protein)
chain: SSSSSEELRRLRELLRQLKRLLKEGDEEEFEELFREAEKLAEELNSRAVETLLRRLKKELESSSS

Target: il2ra, P01589
Test: yeast display titration

Apparent Kd, inactive:
B1 no binding seen
B2 no binding seen
B3 no binding seen
B4 no binding seen
B5 no binding seen
B6 no binding seen
B7 no binding seen
B8 no binding seen
B9 no binding seen
B10 no binding seen
B11 no binding seen
B12 no binding seen
B13 no binding seen
B14 no binding seen
B15 no binding seen
B16 no binding seen
B17 no binding seen
B18 no binding seen
B19 no binding seen
B20 no binding seen
B21 no binding seen
B22 no binding seen
B23 no binding seen
B24 no binding seen

Two entries picked at random from those above:
Apparent Kd, inactive:
B8 no binding seen
B14 no binding seen
